Laboratory results reported in the supplement of paper PMC4604168 (melanoma cell lines).
The list shows a part of the results. Repeats are few or missing, and single values can be far off.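 Imaging used 1,536-well plates; nuclei positive for cleaved PARP by antibody were divided by total DNA-stained nuclei to yield the apoptosis fraction. Doses for screening kept most cells viable, and cell lines differ markedly in resting and induced cleaved-PARP levels.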

Columns and labels:
Assay in all cases: cleaved PARP positive nuclei fraction relative to DMSO control; melanoma cells; higher = more apoptosis
Settings in all cases: library dose: low library concentration; 72 h
[1] = tested on: MZ2-MEL
[2] = tested on: MeWo
[3] = tested on: RPMI7951
[4] = tested on: RVH-421
[5] = tested on: SkMel28
[6] = tested on: SkMel2
[7] = tested on: SkMel30
[8] = tested on: SkMel5
[9] = tested on: UACC257
[10] = tested on: UACC62
[11] = tested on: WM115
[12] = tested on: WM1716
[13] = tested on: WM1745
[14] = tested on: WM3526
[15] = tested on: WM3619
[16] = tested on: WM451Lu

Row | Compound | cleaved PARP positive nuclei fraction [1] | cleaved PARP positive nuclei fraction [2] | cleaved PARP positive nuclei fraction [3] | cleaved PARP positive nuclei fraction [4] | cleaved PARP positive nuclei fraction [5] | cleaved PARP positive nuclei fraction [6] | cleaved PARP positive nuclei fraction [7] | cleaved PARP positive nuclei fraction [8] | cleaved PARP positive nuclei fraction [9] | cleaved PARP positive nuclei fraction [10] | cleaved PARP positive nuclei fraction [11] | cleaved PARP positive nuclei fraction [12] | cleaved PARP positive nuclei fraction [13] | cleaved PARP positive nuclei fraction [14] | cleaved PARP positive nuclei fraction [15] | cleaved PARP positive nuclei fraction [16]
1 | COCC[n+]1c2c(n(Cc3cnccn3)c1C)C(=O)c1ccccc1C2=O + COc1cc(Nc2ncc(F)c(Nc3ccc4c(n3)NC(=O)C(C)(C)O4)n2)cc(OC)c1OC [Tamatinib] (first compound 0.0004 µM, partner dose 0.4 µM) | 218% | 65.3% | 127% | 155% | 145% | 120% | 51.3% | 172% | 963% | 139% | 69.3% | 69.9% | 131% | 133% | 96.5% | 140%
2 | OCCn1cc(-c2cnc3nnn(Cc4ccc5ncccc5c4)c3n2)cn1 + COc1cc2c(Oc3ccc4[nH]c(C)cc4c3F)ncnc2cc1OCCCN1CCCC1 [cediranib] (first compound 1 µM, partner dose 0.4 µM) | 44.3% | 108% | 64.6% | 91.2% | 55.6% | 122% | 57.5% | 199% | 72.2% | 94.1% | 127% | 152% | 106% | 36.2% | 97.4% | 58.2%
3 | C=CCNC1=C2C[C@@H](C)C[C@H](OC)[C@H](O)[C@@H](C)/C=C(\C)[C@H](OC(N)=O)[C@@H](OC)/C=C\C=C(/C)C(=O)NC(=CC1=O)C2=O [Tanespimycin] + CN(C)S(=O)(=O)c1ccc2c(c1)/C(=C/c1cc3c([nH]1)CCCC3)C(=O)N2 [SU6656] (first compound 0.002 µM, partner dose 0.4 µM) | 101% | 70.7% | 242% | 108% | 902% | 34.8% | 71.9% | 92.5% | 163% | 490% | 900% | 73.9% | 142% | 38.2% | 209% | 100%
4 | C=CCn1c(=O)c2cnc(Nc3ccc(N4CCN(C)CC4)cc3)nc2n1-c1cccc(C(C)(C)O)n1 + O=C(O)c1ccc(-c2c[nH]c3ncc(-c4ccccc4)cc23)cc1C1CCCC1 [GSK650394] (first compound 0.02 µM, partner dose 0.16 µM) | 91.6% | 109% | 73% | 70.2% | 70.6% | 106% | 145% | 34.3% | 51.7% | 170% | 177% | 219% | 120% | 70.5% | 214% | 83.7%
5 | Clc1ccc(Nc2nnc(Cc3ccncc3)c3ccccc23)cc1 [vatalanib] + CCc1ccc(CCOc2ccc(CC3SC(=O)NC3=O)cc2)nc1 [pioglitazone] (first compound 2 µM, partner dose 2 µM) | 111% | 72.2% | 69.7% | 208% | 28.1% | 75.1% | 78.2% | 172% | 62.8% | 60.9% | 114% | 70.5% | 86.2% | 185% | 129% | 126%
6 | COc1cc(Nc2ncc(F)c(Nc3ccc4c(n3)NC(=O)C(C)(C)O4)n2)cc(OC)c1OC [Tamatinib] + CO[C@@H]1[C@H](N(C)C(=O)c2ccccc2)C[C@H]2O[C@]1(C)n1c3ccccc3c3c4c(c5c6ccccc6n2c5c31)C(=O)NC4 [Midostaurin] (first compound 0.4 µM, partner dose 0.08 µM) | 188% | 215% | 63.9% | 121% | 74.7% | 136% | 70.3% | 81.6% | 133% | 127% | 90.8% | 290% | 170% | 80.9% | 142% | 123%
7 | Nc1cccc2c1CN(C1CCC(=O)NC1=O)C2=O (stereo not drawn) [lenalidomide] + C[C@@H]1CCN(C(=O)CC#N)C[C@@H]1N(C)c1ncnc2[nH]ccc12 [CP690550] (first compound 1 µM, partner dose 1 µM) | 86.4% | 66.6% | 50.7% | 37.2% | 360% | 121% | 69.8% | 54.8% | 96.7% | 130% | 75.2% | 101% | 93% | 49.7% | 98.6% | 36.7%
8 | C=CCNC1=C2C[C@@H](C)C[C@H](OC)[C@H](O)[C@@H](C)/C=C(\C)[C@H](OC(N)=O)[C@@H](OC)/C=C\C=C(/C)C(=O)NC(=CC1=O)C2=O [Tanespimycin] + Cn1cc(/C=C2\C(=O)Nc3cccnc32)c2ccccc21 [GW441756] (first compound 0.002 µM, partner dose 0.4 µM) | 49.1% | 140% | 82.7% | 95% | 150% | 58.9% | 274% | 98.1% | 224% | 66.8% | 158% | 38.9% | 102% | 114% | 120% | 40.8%
9 | OCc1c[nH]c2ccccc12 [Indole-3-carbinol] + COc1cc2c(Oc3ccc4[nH]c(C)cc4c3F)ncnc2cc1OCCCN1CCCC1 [cediranib] (first compound 0.8 µM, partner dose 0.4 µM) | 150% | 62.9% | 38% | 126% | 81.3% | 97.3% | 63% | 34.9% | 72.1% | 308% | 146% | 40.1% | 108% | 55.7% | 91.2% | 78.2%
10 | COc1cc(Nc2ncc(F)c(Nc3ccc4c(n3)NC(=O)C(C)(C)O4)n2)cc(OC)c1OC [Tamatinib] + Cc1ccc(NC(=O)c2cccc(N(C)C)c2)cc1NC(=O)c1ccc(O)cc1 [ZM336372] (first compound 0.4 µM, partner dose 2 µM) | 234% | 117% | 204% | 158% | 94.1% | 69.8% | 162% | 73.6% | 110% | 274% | 80.8% | 118% | 136% | 57.9% | 101% | 255%
11 | Clc1ccc(Nc2nnc(Cc3ccncc3)c3ccccc23)cc1 [vatalanib] + O=C(CCCCCCC(=O)Nc1ccccc1)NO [vorinostat] (first compound 2 µM, partner dose 0.08 µM) | 165% | 170% | 48.7% | 88.6% | 65% | 178% | 65.1% | 42.4% | 78.2% | 87.6% | 113% | 202% | 99.4% | 66% | 107% | 61%
12 | OCc1c[nH]c2ccccc12 [Indole-3-carbinol] + C=CCn1c(=O)c2cnc(Nc3ccc(N4CCN(C)CC4)cc3)nc2n1-c1cccc(C(C)(C)O)n1 [MK1775] (first compound 0.8 µM, partner dose 0.02 µM) | 104% | 49.6% | 90.1% | 43.6% | 33.4% | 78.3% | 156% | 193% | 46.5% | 222% | 58.9% | 48.7% | 132% | 252% | 174% | 97.6%
13 | Clc1ccc(Nc2nnc(Cc3ccncc3)c3ccccc23)cc1 [vatalanib] + Cn1cncc1[C@@](N)(c1ccc(Cl)cc1)c1ccc2c(c1)c(-c1cccc(Cl)c1)cc(=O)n2C [tipifarnib] (first compound 2 µM, partner dose 0.01 µM) | 62.2% | 75.9% | 275% | 153% | 145% | 117% | 152% | 44.2% | 108% | 434% | 136% | 54% | 107% | 73.1% | 106% | 118%
14 | C#Cc1cccc(Nc2ncnc3cc(OCCOC)c(OCCOC)cc23)c1 [erlotinib] + C=CCn1c(=O)c2cnc(Nc3ccc(N4CCN(C)CC4)cc3)nc2n1-c1cccc(C(C)(C)O)n1 [MK1775] (first compound 0.8 µM, partner dose 0.02 µM) | 94.7% | 54.1% | 55.3% | 42.7% | 74.4% | 40.5% | 66.6% | 81.1% | 129% | 207% | 85.8% | 123% | 144% | 59% | 200% | 80.8%
15 | CC(=O)c1c(C)c2cnc(Nc3ccc(N4CCNCC4)cn3)nc2n(C2CCCC2)c1=O [palbociclib] + CN(C)S(=O)(=O)c1ccc2c(c1)/C(=C/c1cc3c([nH]1)CCCC3)C(=O)N2 [SU6656] (first compound 0.04 µM, partner dose 0.4 µM) | 145% | 74.7% | 211% | 81.2% | 160% | 13.5% | 109% | 138% | 353% | 381% | 92.8% | 49.1% | 112% | 88.9% | 115% | 102%
16 | C[C@]1(c2nc3c(C(N)=O)cccc3[nH]2)CCCN1 [Veliparib] + O=C(O)c1ccc(-c2c[nH]c3ncc(-c4ccccc4)cc23)cc1C1CCCC1 [GSK650394] (first compound 1.4 µM, partner dose 0.16 µM) | 58.9% | 101% | 51.8% | 57% | 66.8% | 111% | 88.2% | 148% | 71.1% | 164% | 162% | 98.4% | 113% | 61.7% | 128% | 139%
17 | Nc1cccc2c1CN(C1CCC(=O)NC1=O)C2=O (stereo not drawn) [lenalidomide] + O=C(O)c1ccc(-c2c[nH]c3ncc(-c4ccccc4)cc23)cc1C1CCCC1 [GSK650394] (first compound 1 µM, partner dose 0.16 µM) | 63.4% | 57.7% | 89% | 46.1% | 52.6% | 60% | 57% | 172% | 138% | 105% | 75.8% | 94.6% | 105% | 256% | 92.8% | 65.9%
18 | C=CCNC1=C2C[C@@H](C)C[C@H](OC)[C@H](O)[C@@H](C)/C=C(\C)[C@H](OC(N)=O)[C@@H](OC)/C=C\C=C(/C)C(=O)NC(=CC1=O)C2=O [Tanespimycin] + Cn1cncc1[C@@](N)(c1ccc(Cl)cc1)c1ccc2c(c1)c(-c1cccc(Cl)c1)cc(=O)n2C [tipifarnib] (first compound 0.002 µM, partner dose 0.01 µM) | 108% | 124% | 150% | 237% | 54.8% | 144% | 78.7% | 136% | 81.8% | 130% | 274% | 121% | 106% | 65.6% | 101% | 128%

Two entries from above in a different format.
Row,Compound,cleaved PARP positive nuclei fraction [1],cleaved PARP positive nuclei fraction [2],cleaved PARP positive nuclei fraction [3],cleaved PARP positive nuclei fraction [4],cleaved PARP positive nuclei fraction [5],cleaved PARP positive nuclei fraction [6],cleaved PARP positive nuclei fraction [7],cleaved PARP positive nuclei fraction [8],cleaved PARP positive nuclei fraction [9],cleaved PARP positive nuclei fraction [10],cleaved PARP positive nuclei fraction [11],cleaved PARP positive nuclei fraction [12],cleaved PARP positive nuclei fraction [13],cleaved PARP positive nuclei fraction [14],cleaved PARP positive nuclei fraction [15],cleaved PARP positive nuclei fraction [16]
1,"COCC[n+]1c2c(n(Cc3cnccn3)c1C)C(=O)c1ccccc1C2=O + COc1cc(Nc2ncc(F)c(Nc3ccc4c(n3)NC(=O)C(C)(C)O4)n2)cc(OC)c1OC [Tamatinib] (first compound 0.0004 µM, partner dose 0.4 µM)",218%,65.3%,127%,155%,145%,120%,51.3%,172%,963%,139%,69.3%,69.9%,131%,133%,96.5%,140%
2,"OCCn1cc(-c2cnc3nnn(Cc4ccc5ncccc5c4)c3n2)cn1 + COc1cc2c(Oc3ccc4[nH]c(C)cc4c3F)ncnc2cc1OCCCN1CCCC1 [cediranib] (first compound 1 µM, partner dose 0.4 µM)",44.3%,108%,64.6%,91.2%,55.6%,122%,57.5%,199%,72.2%,94.1%,127%,152%,106%,36.2%,97.4%,58.2%
